Experimental data: article PMC3899939, “IpsA, a novel LacI-type regulator, is required for inositol-derived lipid formation in Corynebacteria and Mycobacteria” (BMC Biology, 2013)
For part of these data: A negative result means that nothing was seen under these conditions. For part of these data: At least one verdict was read from the data and is not stated in words by the source. For part of these data: Where a protein sequence is shown, tags need not be part of it. For part of these data: A weaker result is weaker than the reference pair of the same experiment. For part of these data: Construct, isoform or probe ends are uncertain for at least one entry.

Chains of the proteins cited; added tags and fusions are not shown. Lines headed by an entry give the natural chain unless they say otherwise; changes in a name come on top.
UniProt Q8NQ97: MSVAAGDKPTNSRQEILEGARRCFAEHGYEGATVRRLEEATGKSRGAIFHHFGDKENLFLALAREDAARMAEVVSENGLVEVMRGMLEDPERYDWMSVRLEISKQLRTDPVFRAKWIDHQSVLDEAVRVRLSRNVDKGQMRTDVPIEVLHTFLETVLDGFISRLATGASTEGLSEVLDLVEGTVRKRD

Legend:
Test in all cases: EMSA
[1] = molecular target: T1, IpsA-Strep (Corynebacterium glutamicum ATCC 13032) (UniProt Q8NMF0); conditions: EMSA: 50 mM Tris-HCl pH 7.5, 40 mM KCl, 5 mM MgCl2, room temperature, 10 uL, DNA 0.028-1 uM, 10-15% native PAGE; recombinant protein; residues 1-358; protein details: C-terminal STREP-tag
T1 sequence (looked up): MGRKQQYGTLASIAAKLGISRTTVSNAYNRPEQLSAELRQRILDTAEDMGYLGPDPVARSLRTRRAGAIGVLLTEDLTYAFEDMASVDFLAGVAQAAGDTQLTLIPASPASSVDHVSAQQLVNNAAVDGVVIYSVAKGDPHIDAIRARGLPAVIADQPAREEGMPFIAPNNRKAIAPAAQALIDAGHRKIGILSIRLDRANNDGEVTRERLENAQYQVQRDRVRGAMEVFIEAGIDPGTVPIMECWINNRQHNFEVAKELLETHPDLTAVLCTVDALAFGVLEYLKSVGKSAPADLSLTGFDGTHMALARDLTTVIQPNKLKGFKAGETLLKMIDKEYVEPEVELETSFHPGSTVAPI

AcnR = AcnR (UniProt Q8NQ97); conditions: up to 50 mM myo-inositol, no effect; EMSA: 50 mM Tris-HCl pH 7.5, 40 mM KCl, 5 mM MgCl2, room temperature, 10 uL, DNA 0.028-1 uM, 10-15% native PAGE; recombinant protein; probe letters rebuilt from the primers and the genome
[2] = tested on: T2, IpsA-His (Corynebacterium glutamicum ATCC 13032); conditions: EMSA: 50 mM Tris-HCl pH 7.5, 40 mM KCl, 5 mM MgCl2, room temperature, 10 uL, DNA 0.028-1 uM, 10-15% native PAGE; recombinant protein; residues 1-360; protein details: N-terminal His10-tag, TEV site; probe letters rebuilt from the primers and the genome
T2 sequence (looked up): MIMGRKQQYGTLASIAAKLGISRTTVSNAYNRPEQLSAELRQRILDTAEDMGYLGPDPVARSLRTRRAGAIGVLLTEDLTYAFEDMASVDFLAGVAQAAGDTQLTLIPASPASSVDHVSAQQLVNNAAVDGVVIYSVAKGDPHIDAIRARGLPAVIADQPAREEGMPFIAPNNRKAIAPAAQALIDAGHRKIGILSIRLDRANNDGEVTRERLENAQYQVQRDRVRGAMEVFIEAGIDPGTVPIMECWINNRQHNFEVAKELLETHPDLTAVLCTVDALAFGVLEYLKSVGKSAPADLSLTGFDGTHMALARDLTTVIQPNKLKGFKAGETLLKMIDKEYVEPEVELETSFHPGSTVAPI

| Sequence | binding result [1] | binding result [2] | also measured |
| --- | --- | --- | --- |
| AATGGGGGTAATGCTTGATCGATCAATTGA (double strand) [cg3323-A] | binds |  |  |
| ACATCACGCACGTACCCATTTCGAGCAAATCCGACAAAACCGCTGCCTAGGGACATTAGACACGCTAGCAGGCCAAAATTCCATGACGTTATTGACGCGCCAAGAACCCCAACTTTCCCGCCAGAACGCTTGTACTGTTAGGATAATGAAGACGTAGGGTCCTTTTCCACAGTTCTGTGGAATGAGAATCCGATGTTTTTCTCACGCCGGCTCAGCCGAAGCAGACGCCGTCGCGAAATCTCACCCTAAAAAAGTTAGAATTGGAGCTCACTGTGACTGAAAGCAAGAACTCCTTCAATGCTAAGAGCACCCTTGAAGTTGGCGACAAGTCCTATGACTA (double strand) [acn promoter] |  |  | binding result (AcnR): binds |
| AGGTCTGATTTCTGCTGGGAATCCCCACAT (double strand) [cg3323-D] | no binding |  |  |
| ATAAGCATCAGAGCCATGCTCGTTACTTTTAATGACTTGCTCATTAGTTTCGTCCATGGACCCTGTAGCCTGCGACGTTAAATTAGCCAGATTTGCTGCCACCTGCGCTGCTGCGGCGTTCTCGTTTGGTGTACCGGAATTCTTCGGCGAAATGCTCATTACATACTCCTTAGCCTCGTAACTGTATTACCTCAAGTGTATCCGGTGGACACGACGCAGTAGTAAAAAATTTAGACCACCCTTGCGAATAAAAACTAATAAATACTGTTCACTATATTTTCGATAATTTATTAAAACTATTCACCCAAAAGTTTTTGTATCAAAATACACATATTTTAATGACTTTAGCTATACTTCTATCTTGTGACTTAAATGAAAGTCACAAACTTTGTTGGGGTTTCTTTAAAGTAAAATACAGAAGTTTCTCTGGCAAAAAACCTCACTACTTTCTACAGAAAGGCGTCTTCCTCATGAAGGCTTCTCAGACCCTCACCCGCAAC (double strand) [cg1918 promoter fragment] |  | binds more weakly |  |
| CCAAGAGGATACGTGCGATGAGGAATGCAATTTCCCTGGTAGTTGACATGGTCACTAAAGCTAGAATGAATTAGTTTCCGTGTCAACTATTGGGGTTTCGTCGGAGCTTTCTGGCAAATGTAAAGACCAGCTATTAACGGTCTATTTCCCGAGGTACAGCCCATTTATTCGCCTCAGAAACTGGATCTGGAAGCAGCTCAGCCGGGAAAGTTTGATAAGAAACCGGGCGCATAAATCTCTCGATTGCCAGGGTTCCAACACTTGTCGACTGCGCATTTGAGGTCGCCGGATAAGGGCCTCCATGGATAACCGTGTGCCCAACTTCCACACCCGTTGGCCAGCCGCCGTAAAGAACACGGCCCGCGAGATCCTCCAAGAGGGGGATAAGTTTCGAGACTTCCTGGAAATCATCCTGGGATGCGTGGATCGTGGCTGTTAATTGTCCCTCGAGTGAATTGGCTACTTGGTGGAGTTGATCCGGGGAATCATAACGCACCACCAGC (double strand) [cg0534 promoter fragment] |  | binds more weakly |  |
| CGTTATTGCTGGCGAAGGCGATGTGGACGCGGTTGTTGCTGCTCGTGGACTGGAAGTTGTTCGCGATGACGGCGCAATTGAAAAGGCTGTCGATGATGCCTTGGCTGCAAACCCAGACATCGTGGAGAAGTACCGCGCTGGCAACACCAAGGTCACCGGCGCCATCGTTGGTGCTGTCATGAAGGCGACCCGCGGTAAGGCTGACCCAGCTCAGGTGAACCAGCTGATCGCAAAGAAGTTGGCTTAAGCTTTTTGCCGTTGAGCTGCTAAAAGTCTCGCATTAAAGGACTGCTTCCCTTCGGGGGAGCATTTCTTTTTAACTAATTACTTGACACGTCAAGTAATTAGGGTCTAGTGTTGTGTTCATGATCAAAGAACTGCTCAACAAGCTCTTCGGAAACAAGAAGGCTTCCCCGGCAATGACACAATCTGAAACCATTTCACACAAGGAGAACAACACAATGACCACTTACACCATCTTCGGCCGCGGCAACATGGGCACCGCAATC (double strand) [cg1421 promoter fragment] |  | binds more weakly |  |
| GATTAACAGCGCAGCACCAATGAGCGCTGCGGCGAGTCTTGGTAGCTTCATTTACTCAAGTCAACGCAGGTCAGAGGCACAAGTCAAACTTTATTAACGCTTCTTTATTGATTCAGTGGCTTTGCGCTGTGGCTTTATGATTCCTTTTTCCAAGGCGATAATCTGATCTGCTTGATGTGCTTGATCAAGATCGTGAGTCGCAAGAATAATTGTGGTTCCTTGGTTGCGTTGTTGGTTAATGACATCTTCGATAAGACTTGCCGCGTGGGAGTCCACGGCGGCGAGGGGTTCGTCGAGAAGCAATAAGGGCGCCTGTTGCGCTAAACCTTGCGCTATGAGGGCGCGTTGGCGCTGCCCGCCTGATACTTCGCCGAGGGGGCGGTCGGCGAGGCCGGAGATTTCGAGCCGGTCGAGGCAGCTGTCCACGATGTTGCAATCTGC (double strand) [cg0044 promoter fragment] |  | binds |  |
| GCTCACTTCTTGATTGATGCGGTGGCTTTT (double strand) [cg3210 30-mer] | binds |  |  |
| GCTCTAACAACCGCCAAAAGAAGAACTAAAACAAACGATTCTCCTGGGAAAATTATCACCGCTCAGCAAGTCACATTTAGACGTCGACGATAGGAACCTCAATATGTTTGATTCAGCAGTTTTTAATGTCGCCTCTTGGATTGAGAAAGATGCCACTAATTGGATTCAAGACCACTCACGGGTGTCTGAGATTCGCAAGCAACGGCCGAGTTAGAACCACTACGTAGGCGTACCCCACCATCACCGCGTCGAAAAGCGCCCTCTCTTAACCCCCGCAAGGGGGTAACTTTTACGCGCACGCGTGCAACGCGCTAGTTTTGAAGGCAGTCCCCACGGGCGCCCGAGCACGGGCTGAGATCGCGCTGATTGCTGCGCGAGCACCGTTTGAACCTGTCCGGTTAGCACCGGCGAAGGAAGAGAGGAATGGTGCAATGACGCCTACCCAAAATGAGATCCACCCG (double strand) [cg1476 (thiC) promoter fragment] |  | binds more weakly |  |
| GGAAATCTCCCGAACATCAGAAGTGGCAATCACCTGGTCATTCGATGATGAACGCAGAAAATAAAACGAGGCAGCCGCAATGATCAAAATCAGGACCACGGCCACAATGATTAATTTCTTCGGGGCCAAGGAAAGCGAAGGTGGTAGTGCCACAGTGAGATGGCCCCGAGGATCAGGTAACCCCGGGGCACTCCTTTCATAAGTTCTTACAACAAGTCTGTATCCAAAATGCCAGGGTACGGACATACCATTCACAACACATCAGGGAATCCACCTACTTTGTTTTCCCCTAGAAATCCCCCATTTCATCACTCCCGAATGGGGGTAATGCTTGATCGATCAATTGAGTTGCTTGATCGATCAGGTCTGATTTCTGCTGGGAATCCCCACATTTTGGAACGTAGCGTCGATAAGCGTGCGGCGAAGCTTTTTCGGTCGCGGCCGTTATCTTTTTAAGAGGAGAAATTTTAGATGAGCACGTCCACCATCAGGGTTGCCATT (double strand) [ino1 (cg3323) promoter fragment] |  | binds |  |
| GGCCAAGGTGGTTAAGTCTTGTTCGGGCAAAGCATCCTCCTTTAAAAAGTGTCGTGACTCACTTTCTACTCTATAAAGTGTTTCAAGTCATTGAGGGTGCCCCCGTTTGTAATTCTTGCAAAGTGGGTATTGTGCACTTTTTGCGAGGATCTATCGAATGAATTGGCAAAACATAACTTTGGGAAAGTACCCCCTATGACGGAAAACTGGATGGATCCTGTGGTTGAACCACAGTCAACGGGAGAGGGGAAATCGGACACTATATGGTTGGAGATCGTGACAACTGACCAAAACAAAAGAAGTCTCAGTGAGCTTGCGGCCAGAATCGTTAGTGAAATCTGTGCACCGTGGGTACTCAACATCGGATTTTTCCTCATCCTGGGCGGCGTAACAGGCGCCTGGACGCTAGGAATTGTGGCGGCAATCGGAACCGGAATCGTTCCGATGATCTTAATTTTGGGCTTGATGAAGCTCGGCAGGGTAGGAAACCACCATGTGACGA (double strand) [cg3195 promoter fragment] |  | binds more weakly |  |
| GTTGCTTGATCGATCAGGTCTGATTTCTGC (double strand) [cg3323-C] | binds |  |  |
| TTGAGTGTATTGATCGATCAGGTCTGATTT (double strand) [cg3323 M1] | binds more weakly |  |  |
| TTGAGTTGCGGTATCGATCAGGTCTGATTT (double strand) [cg3323 M2] | binds more weakly |  |  |
| TTGAGTTGCTTGATCGATCAGTGATGATTT (double strand) [cg3323 M6] | binds more weakly |  |  |
